# Data as given in PubChem BioAssay AID1259254 (NCATS, 2017)
# Assay: 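Genome-wide screen for genes that prevent DNA re-replication in cancer cells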 (primary screen)
# System: human HCT116 colorectal cancer cells
# Reagent: single siRNA against human genes
# Duration: 3 days
# Measurement: 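Imaged Hoechst DNA stain sorts each cell into a cycle phase by DNA amount; per plate, G2 fraction set to 0% for non-targeting and 100% for GMNN siRNA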
# Scale: G2 robust z-score: higher = more G2 cells, more excess DNA replication
# Hit rule: 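Active siRNAs have a G2 robust z of 5 or more median absolute deviations over the median, which in these data means about 38% or higher of GMNN control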
# The deposit covers about 59,000 reagents; below is a part drawn at random. About 1,550 of them (2.6%) count as active. 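G2 share is only a proxy for re-replication; each gene was hit by three separate siRNAs, and active genes were retested.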 Entries without a mark were called inactive. Further read-outs or replicates are left out here. The record does not give: the amount of reagent.
Gene,PubChem SID,G2 robust z-score
GOLPH3L,SID160733590,-1.06
GOLPH3L,SID160743217,-0.808
GOLPH3L,SID160743219,-0.768
SARS1,SID160716342,0.0738
SARS1,SID160716343,-0.391
SARS1,SID160716344,-1.09
NT5C3A,SID160740412,2.49
NT5C3A,SID160740413,0.14
NT5C3A,SID160740414,-0.451
SEPTIN7,SID160740034,0.598
SEPTIN7,SID160740045,0.00559
SEPTIN7,SID160740055,7.93 (active)
EOGT,SID160763528,1.21
EOGT,SID160763529,-0.946
EOGT,SID160763530,-0.516
LOC646629,SID160725960,4.1
LOC646629,SID160725961,-0.679
LOC646629,SID160769962,-0.0477
PADI4,SID160736592,-0.969
PADI4,SID160736594,0.752
PADI4,SID160736595,-0.754
CHORDC1,SID160738200,0.978
CHORDC1,SID160738201,0.347
CHORDC1,SID160738202,0.884
ZNF813,SID160756382,-0.796
ZNF813,SID160756383,-0.579
ZNF813,SID160756384,-1.11
RIPOR3,SID160757931,0.704
RIPOR3,SID160757932,0.411
RIPOR3,SID160757933,-1.22

Ordered by “G2 robust z-score” (low to high): some entries from above
Gene,PubChem SID,G2 robust z-score
ZNF813,SID160756384,-1.11
ZNF813,SID160756382,-0.796
PADI4,SID160736595,-0.754
ZNF813,SID160756383,-0.579
CHORDC1,SID160738201,0.347
PADI4,SID160736594,0.752
CHORDC1,SID160738202,0.884
CHORDC1,SID160738200,0.978

The listing continues.
Gene,PubChem SID,G2 robust z-score
NDST3,SID160721995,-0.441
NDST3,SID160721996,-0.392
NDST3,SID160721998,-0.316
CACUL1,SID160758021,-0.87
CACUL1,SID160758022,1.32
CACUL1,SID160758024,-0.672
MBTD1,SID160742182,0.0314
MBTD1,SID160742184,-0.402
MBTD1,SID160742185,-0.309
KLK6,SID160715119,0.183
KLK6,SID160715120,0.935
KLK6,SID160715121,-0.609
TMEM126A,SID160751927,-0.515
TMEM126A,SID160751928,0.419
TMEM126A,SID160751929,-0.399
SLC44A4,SID160734990,-0.451
SLC44A4,SID160750502,-0.248
SLC44A4,SID160750504,0.09
